The test system of the assay is P388 leukemia ip, CD2F1 mice, survival T/C. Description: NCI In Vivo Anticancer Drug Screen. Data for tumor model P388 Leukemia (intraperitoneal) in CD2F1 (CDF1) mice. As to conditions: T/C endpoint: median survival time, higher T/C = longer survival.
Where [1] appears, read: dose: 200.0 mg/kg/injection, schedule: Q01DX009 (ip), vehicle: Klucel (hydroxypropylcellulose) (HPC).
[2] abbreviates: dose: 200.0 mg/kg/injection, schedule: Q01DX005 (ip), vehicle: Klucel (hydroxypropylcellulose) (HPC).
Where [3] appears, read: dose: 100.0 mg/kg/injection, schedule: Q01DX005 (ip), vehicle: saline with Tween-80.
Setting [4] is: dose: 200.0 mg/kg/injection, schedule: Q01DX009 (ip), vehicle: saline.
The mark [5] stands for this setting: dose: 240.0 mg/kg/injection, schedule: Q01DX005 (ip), vehicle: Klucel (hydroxypropylcellulose) (HPC).
Where [6] appears, read: dose: 100.0 mg/kg/injection, schedule: Q01DX009 (ip), vehicle: saline with Tween-80.
Setting [7] is: dose: 240.0 mg/kg/injection, schedule: Q01DX005 (ip), vehicle: saline with Tween-80.
The mark [8] stands for this setting: dose: 200.0 mg/kg/injection, schedule: Q01DX009 (ip), vehicle: saline with Tween-80.

Here are results for 24 molecules from PubChem BioAssay AID330 (DTP/NCI, 2004).

The list does not hold the whole screen: it is rich in T/C values a quarter to a half above the control, in often repeated tests (any T/C) and in doses without a T/C. Other doses and runs of a compound stand elsewhere. T/C gives the treated animals as a percentage of the vehicle group. Some doses have a count of surviving animals in place of a T/C: the source files T/C as zero there, which appears to mark a toxic dose or a test without result, not a measured value. Some survivor counts are full or nearly so, which does not show that the dose was tolerated: survival well below the control is almost never listed, so the zero probably covers shortened survival too. Counts of survivors are from the toxicity check (mostly the fifth day) where no day follows; animals may have died later. Schedule codes are those of the source, read here as Q, the interval in days (D) or hours (H), X, the number of doses. Some entries were tested several times; the results are listed from low to high. Counts like (3×) count equal records among those shown. Some schedules carry Z or #; the key to these is not given. For survival time, this PubChem deposit counts one and a half times the control or more as active, and values a quarter to a half above the control carry no call in these data; other NCI protocols may use other cut-offs. Some T/C values carry the count of animals alive at the toxicity check (mostly the fifth day); where none is given, no animal had died by that day.

Regarding `CCOC(=O)CNC(=O)/C=C\C(=O)NC(=O)OCC`, the survivor count is, setting by setting: (dose: 15.0 mg/kg/injection, schedule: Q01DX009 (ip), vehicle: saline with Tween-80) 2 of 6 and 6 of 6; (dose: 30.0 mg/kg/injection, schedule: Q01DX009 (ip), vehicle: saline with Tween-80) 0 of 6; (dose: 60.0 mg/kg/injection, schedule: Q01DX009 (ip), vehicle: saline with Tween-80) 0 of 6; (dose: 120.0 mg/kg/injection, schedule: Q01DX009 (ip), vehicle: saline with Tween-80) 0 of 6; (dose: 240.0 mg/kg/injection, schedule: Q01DX009 (ip), vehicle: saline with Tween-80) 0 of 6.
For the molecule `O=S(=O)(Nc1cc2ccccc2cc1NS(=O)(=O)N1CCCCC1)N1CCCCC1`, the survivor count under setting [1] is on record as 6 of 6.
For `OC1c2ccccc2-c2nc3ccccc3cc21` (stereo not given), under setting [2], the survivor count is given as 6 of 6.
Turning to `N#C/C(=N\NC(=O)c1cccc(C(=O)N/N=C(\C#N)c2ccccc2Cl)n1)c1ccccc1Cl`, the survivor count was 6 of 6 (dose: 12.5 mg/kg/injection, schedule: Q01DX005 (ip), vehicle: saline with Tween-80); 6 of 6 (dose: 25.0 mg/kg/injection, schedule: Q01DX005 (ip), vehicle: saline with Tween-80); 6 of 6 (dose: 50.0 mg/kg/injection, schedule: Q01DX005 (ip), vehicle: saline with Tween-80); 6 of 6 under setting [3].
`Cn1ccccc1=O`: the T/C is 95, 100, 107, 109, 111 % of control (dose: 50.0 mg/kg/injection, schedule: Q01DX009 (ip), vehicle: saline); 101, 104, 107 (2×), 117 % of control (dose: 100.0 mg/kg/injection, schedule: Q01DX009 (ip), vehicle: saline); 98 [5 of 6 alive], 109, 111, 128 % of control under setting [4]. Moreover, the survivor count was 6 of 6 under setting [4] and 3 of 6, 4 of 6, 6 of 6 (2×) (dose: 400.0 mg/kg/injection, schedule: Q01DX009 (ip), vehicle: saline).
In the case of `O=C1C(Cl)=C(Nc2cccc3cc4ccccc4nc23)C(=O)c2ccccc21`, the survivor count (dose: 20.0 mg/kg/injection, schedule: Q01DX009 (ip), vehicle: saline) is on record as 5 of 6.
As for `COc1cc(N(C)c2cc(=O)n(C)c(=O)[nH]2)ccc1C`, the survivor count under setting [3] is reported as 0 of 5 and the survivor count (dose: 200.0 mg/kg/injection, schedule: Q01DX005 (ip), vehicle: saline with Tween-80) was 0 of 5.
As to `CCCCOc1cccc2c(NCCCCCCNc3c4ccccc4nc4c(OCCCC)cccc34)c3ccccc3nc12`, the survivor count reads like this: (dose: 10.0 mg/kg/injection, schedule: Q## X009 (ip), vehicle: lactic acid) 3 of 6; (dose: 20.0 mg/kg/injection, schedule: Q## X009 (ip), vehicle: lactic acid) 0 of 5.
Turning to `CCN(CC)Cc1c(C)[nH]c2ccc3c(c2c1=O)CCCC3`, the survivor count under setting [5] is on record as 0 of 6.
For the molecule `CC1=CC(=O)c2c(O)cccc2C1=O`, the survivor count reads like this: (dose: 8.0 mg/kg/injection, schedule: Q01DX009 (ip), vehicle: Klucel (hydroxypropylcellulose) (HPC)) 2 of 6; (dose: 8.0 mg/kg/injection, schedule: Q01DX009 (ip), vehicle: saline with Tween-80) 1 of 6; (dose: 16.0 mg/kg/injection, schedule: Q01DX009 (ip), vehicle: Klucel (hydroxypropylcellulose) (HPC)) 0 of 6 (2×); (dose: 16.0 mg/kg/injection, schedule: Q01DX009 (ip), vehicle: saline with Tween-80) 0 of 6; (dose: 32.0 mg/kg/injection, schedule: Q01DX009 (ip), vehicle: Klucel (hydroxypropylcellulose) (HPC)) 0 of 6.
Regarding `O=C(O)C(CBr)CBr`, the survivor count reads like this: (dose: 200.0 mg/kg/injection, schedule: Q01DX009 (ip), vehicle: water) 0 of 6; (dose: 400.0 mg/kg/injection, schedule: Q01DX009 (ip), vehicle: water) 0 of 6.
As to `CCc1c2cc(OC)c(OC)cc2cc2c3cc(OC)c(OC)cc3cc[n+]12` (tested in a mixture with another compound), the T/C (dose: 13.2 mg/kg/injection, schedule: Q04DX003 (ip), vehicle: saline) was 125 % of control; the T/C (dose: 30.0 mg/kg/injection, schedule: Q04DX003 (ip), vehicle: saline) was 140 % of control; the T/C (dose: 50.0 mg/kg/injection, schedule: Q04DX003 (ip), vehicle: saline) is 139 % of control; the T/C under setting [6] is 148 % of control; the T/C (dose: 100.0 mg/kg/injection, schedule: Q04DX003 (ip), vehicle: saline) was 139 % of control; the T/C (dose: 132.0 mg/kg/injection, schedule: Q04DX003 (ip), vehicle: saline) is 141 % of control.
Regarding `O=C(O)/C=N/NP(=O)(Oc1ccccc1)Oc1ccccc1`, the survivor count (dose: 25.0 mg/kg/injection, schedule: Q01DX009 (ip), vehicle: distilled water + Tween-80) was 5 of 6.
As to `NCCCCCC(CCN)SCC1OC(n2cnc3c(N)ncnc32)C(O)C1O` (stereo not given), the survivor count runs as follows: (dose: 60.0 mg/kg/injection, schedule: Q01DX005 (ip), vehicle: saline with Tween-80) 0 of 6; (dose: 120.0 mg/kg/injection, schedule: Q01DX005 (ip), vehicle: saline with Tween-80) 0 of 6; under setting [7], 0 of 6.
For `O=C(Nc1cccc(C(F)(F)F)c1)Nc1nccs1`, the survivor count under setting [1] is given as 6 of 6.
In the case of `C/C(CCCC(C)(C)C(=O)O)=N/Nc1ccc([N+](=O)[O-])cc1[N+](=O)[O-]`, the survivor count is given as 0 of 6 under setting [6] and 0 of 6 under setting [8].
Regarding `O=C(O)CC(=O)C(=O)O`, the survivor count (dose: 400.0 mg/kg/injection, schedule: Q04DX002 (ip), vehicle: saline) is 3 of 6.
With `O=C(O)CC(CC(=O)c1ccccc1)c1ccccc1` (stereo not given), the T/C (dose: 50.0 mg/kg/injection, schedule: Q01DX009 (ip), vehicle: Klucel (hydroxypropylcellulose) (HPC)) was 127 % of control.
With `O=C(Nc1nncs1)c1ccncc1`, the T/C (dose: 100.0 mg/kg/injection, schedule: Q04DX002 (ip), vehicle: saline with Tween-80) was 129 % of control [5 of 6 alive] and the T/C (dose: 200.0 mg/kg/injection, schedule: Q04DX002 (ip), vehicle: saline with Tween-80) was 127 % of control. Further, the survivor count (dose: 600.0 mg/kg/injection, schedule: Q04DX002 (ip), vehicle: saline with Tween-80) was 5 of 6.
Take `O=S(=O)(Nc1nccs1)c1ccc(Nc2c3ccccc3nc3ncccc23)cc1`: the survivor count under setting [7] is listed as 6 of 6.
In the case of `CCOc1nc2ccc(NC(C)CN3CCN(CCc4ccccc4)CC3)cc2s1` (stereo not given), the survivor count under setting [2] was 0 of 6.
With `Nc1[nH]c(=S)[nH]c(=O)c1NS(=O)(=O)c1cccc([N+](=O)[O-])c1`, the T/C (dose: 60.0 mg/kg/injection, schedule: Q01DX005 (ip), vehicle: Klucel (hydroxypropylcellulose) (HPC)) is 141 % of control; the T/C (dose: 120.0 mg/kg/injection, schedule: Q01DX005 (ip), vehicle: Klucel (hydroxypropylcellulose) (HPC)) was 133 % of control; the T/C under setting [5] was 136 % of control.
As to `C/C=C1/CC2C=Nc3cc(O)c(OC)cc3C(=O)N2C1` (stereo not given), the T/C (dose: 0.25 mg/kg/injection, schedule: Q01DX005 (ip), vehicle: saline + alcohol) was 135 % of control; the T/C (dose: 0.5 mg/kg/injection, schedule: Q01DX005 (ip), vehicle: saline + alcohol) is 145 % of control; the T/C (dose: 800.0 micrograms/kg/injection, schedule: Q01DX005 (ip), vehicle: saline + alcohol) is 139 % of control; the T/C (dose: 1000.0 micrograms/kg/injection, schedule: Q01DX005 (ip), vehicle: saline + alcohol) was 141 % of control. Besides, the survivor count (dose: 2.0 mg/kg/injection, schedule: Q01DX005 (ip), vehicle: saline + alcohol) is listed as 6 of 6.
On to `O=c1cc(-c2ccccc2)[nH]c2c1CCCC2`, for which the T/C by setting is: under setting [6], 130 % of control; under setting [8], 141 and 148 % of control. Moreover, the survivor count (dose: 600.0 mg/kg/injection, schedule: Q01DX009 (ip), vehicle: saline with Tween-80) is 0 of 6.
